Laboratory results published in paper PMC11313276, “Structures of Mature and Urea-Treated Empty Bacteriophage T5: Insights into Siphophage Infection and DNA Ejection” (International Journal of Molecular Sciences, 2024).

Columns and labels:
[1] = molecular target: adaptor protein p144 (bacteriophage T5); experiment: cryo-EM structure; mature T5 virions (fiberless mutant) purified by CsCl gradients, in buffer A (100 mM NaCl, 1 mM MgSO4, 1 mM CaCl2, 10 mM Tris-HCl, pH 7.6); icosahedral, symmetry-mismatch and local reconstructions of head, portal, connector, tail tube and tail tip; both purified
[2] = molecular target: adaptor protein p144 (bacteriophage T5); experiment: cryo-EM structure; urea-treated empty T5 (purified virions, 4 M urea, 2 h, 37 °C, dialyzed in buffer A; DNA and TMP ejected, tip complex lost); symmetry-mismatch and local reconstruction of the connector complex; both purified

B1: portal protein pb7 (natural protein, bacteriophage T5)
chain: LNPGQRIIRDMEPVSHRTNRKPFTTGQAYSKIEILNRTANMVIDSAAECSYTVGDKYNIVTYANGVKTKTLDTLLNVRPNPFMDISTFRRLVVTDLLFEGCAYIYWDGTSLYHVPAALMQVEADANKFIKKFIFNNQINYRVDEIIFIKDNSYVCGTNSQISGQSRVATVIDSLEKRSKMLNFKEKFLDNGTVIGLILETDEILNKKLRERKQEELQLDYNPSTGQSSVLILDGGMKAKPYSQISSFKDLDFKEDIEGFNKSICLAFGVPQVLLDGGNNANIRPNIELFYYMTIIPMLNKLTSSLTFFFGYKITPNTKEVAALTPDKEAEAKHLTSLVNNGIITGNEARSELNLEPLDDEQMNKIRIPANVAGSATGVSGQEGGRPKGSTEGD
notes: portal protein pb7 of bacteriophage T5, 403 residues in total; atomic model built for residues 11-377; source: also in virions treated with 4 M urea for 2 h at 37 °C and dialyzed; copies: 12
- binding [1]: binds
- binding [2]: binds

No constants are given. Whether binding was seen depends on the method and setting. Binding calls can cover weak binding; strength is not graded here.
